According to article PMC8394291, “Identification of TSPAN4 as Novel Histamine H4 Receptor Interactor” (Biomolecules, 2021):
No constants are given. Whether binding was seen depends on the method and setting. In cells and extracts the contact can be indirect. Some results given as binding are weak or reduced against the parent protein; the word gives no strength.

By UniProt entry, the sequences of proteins in these tests, tags left out. Where a name states a change or a piece, a line headed by the entry shows the natural chain unless it says otherwise.
UniProt Q9H3N8, whole entry: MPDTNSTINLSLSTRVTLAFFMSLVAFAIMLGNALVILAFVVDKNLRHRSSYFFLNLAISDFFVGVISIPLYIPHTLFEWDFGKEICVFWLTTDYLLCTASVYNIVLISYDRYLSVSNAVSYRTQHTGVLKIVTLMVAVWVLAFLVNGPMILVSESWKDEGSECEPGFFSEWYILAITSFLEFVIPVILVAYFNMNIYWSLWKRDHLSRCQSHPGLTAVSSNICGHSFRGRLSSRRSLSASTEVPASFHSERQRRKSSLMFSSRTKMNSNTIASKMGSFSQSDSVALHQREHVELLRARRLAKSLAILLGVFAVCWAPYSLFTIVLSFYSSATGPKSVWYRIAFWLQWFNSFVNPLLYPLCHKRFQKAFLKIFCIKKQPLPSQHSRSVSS

Columns and labels:
H4R-V1 (human) = H4R-V1 (human) (UniProt Q9H3N8); assay: split reporter; BiFC of mVenus fragments V1 and V2 in co-transfected HEK293T cells; microscopy after PFA fixation and plate reader; vehicle or 10 µM histamine for 30 min
HA-H4R (human) [1] = biological target: HA-H4R (human) (UniProt Q9H3N8); assay: co-IP; HEK293T cells co-expressing HA-H4R and mVenus-TSPAN4, solubilised in RIPA buffer; anti-HA agarose IP overnight at 4 °C; blot with anti-Venus; vehicle or 10 µM histamine
HA-H4R (human) [2] = biological target: HA-H4R (human) (UniProt Q9H3N8); assay: condition: only cells expressing either HA-H4R or mVenus-TSPAN4 mixed (1:1) before solubilization; co-IP; control: HEK293T cells expressing either HA-H4R or mVenus-TSPAN4 mixed 1:1 before solubilisation; anti-HA agarose IP; blot with anti-Venus

binding (H4R-V1 (human)) | binding (HA-H4R (human) [1]) | binding (HA-H4R (human) [2]) | Binder
binds | – | – | V2-TSPAN4 (protein, UniProt O14817 2-238) ARACLQAVKYLMFAFNLLFWLGGCGVLGVGIWLAATQGSFATLSSSFPSLSAANLLIITGAFVMAIGFVGCLGAIKENKCLLLTFFLLLLLVFLLEATIAILFFAYTDKIDRYAQQDLKKGLHLYGTQGNVGLTNAWSIIQTDFRCCGVSNYTDWFEVYNATRVPDSCCLEFSESCGLHAPGTWWKAPCYETVKVWLQENLLAVGIFGLCTALVQILGLTFAMTMYCQVVKADTYCA
– | binds | no binding | mVenus-TSPAN4 (natural protein, human, UniProt O14817 2-238, looked up, tetraspanin 4 (TSPAN4), human; start codon replaced by SpeI-NotI sites coding for a TSAAA linker, mVenus at the intracellular N-terminus; also called mVenus-TSPAN4/pcDNA3.1; source: HEK293T, transiently transfected, in living cells (BRET) and in lysate (co-IP); not shown: mVenus (with TSAAA linker), N-terminal, kept) ARACLQAVKYLMFAFNLLFWLGGCGVLGVGIWLAATQGSFATLSSSFPSLSAANLLIITGAFVMAIGFVGCLGAIKENKCLLLTFFLLLLLVFLLEATIAILFFAYTDKIDRYAQQDLKKGLHLYGTQGNVGLTNAWSIIQTDFRCCGVSNYTDWFEVYNATRVPDSCCLEFSESCGLHAPGTWWKAPCYETVKVWLQENLLAVGIFGLCTALVQILGLTFAMTMYCQVVKADTYCA
